For three molecules, binding results are on record in PMC10009235.

Experiment [1] deals with T1, ETV2 (Ets variant 2), yeast two-hybrid fusion (UniProt P41163).
T1 sequence: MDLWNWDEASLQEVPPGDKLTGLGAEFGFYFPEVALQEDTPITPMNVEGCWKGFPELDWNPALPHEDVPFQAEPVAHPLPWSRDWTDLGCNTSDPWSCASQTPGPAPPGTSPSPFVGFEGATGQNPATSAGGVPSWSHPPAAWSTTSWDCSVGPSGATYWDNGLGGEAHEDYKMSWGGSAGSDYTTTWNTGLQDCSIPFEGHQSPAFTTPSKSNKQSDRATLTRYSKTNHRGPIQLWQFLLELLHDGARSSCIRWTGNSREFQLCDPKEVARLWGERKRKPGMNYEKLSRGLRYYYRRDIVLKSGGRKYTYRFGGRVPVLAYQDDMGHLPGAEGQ
Put plainly: two-hybrid; yeast two hybrid screen for ETV2 interacting partners; no methods given.

Experiment [2] deals with T2, GST-tagged C-terminal ETV2 (227-335) (UniProt P41163).
T2 sequence: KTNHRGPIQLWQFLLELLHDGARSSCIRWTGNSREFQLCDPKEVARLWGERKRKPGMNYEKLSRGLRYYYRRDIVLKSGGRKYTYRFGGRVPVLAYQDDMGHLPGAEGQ
Put plainly: pull-down; GST fusion proteins on Glutathione Sepharose 4B beads, blocked with BSA (2 mg/mL), incubated with 6 uL in vitro translated VEZF1 for 2 h at 4 C; washes with cold PBS, elution with 10 mM glutathione pH 8.0; blot anti-Flag; only the target purified.

The target in experiment [3] is T3, GST-tagged N-terminal ETV2 (1-226) (UniProt P41163).
T3 sequence: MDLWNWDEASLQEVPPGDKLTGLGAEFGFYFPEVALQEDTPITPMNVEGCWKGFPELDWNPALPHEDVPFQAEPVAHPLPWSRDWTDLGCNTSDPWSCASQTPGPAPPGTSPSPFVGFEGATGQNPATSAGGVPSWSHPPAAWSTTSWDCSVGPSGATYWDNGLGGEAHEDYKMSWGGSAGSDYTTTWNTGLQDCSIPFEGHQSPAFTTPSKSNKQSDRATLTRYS
The experiment is described as above.

Experiment [4] deals with T4, GST-tagged full length ETV2 (1-335) (UniProt P41163).
T4 sequence: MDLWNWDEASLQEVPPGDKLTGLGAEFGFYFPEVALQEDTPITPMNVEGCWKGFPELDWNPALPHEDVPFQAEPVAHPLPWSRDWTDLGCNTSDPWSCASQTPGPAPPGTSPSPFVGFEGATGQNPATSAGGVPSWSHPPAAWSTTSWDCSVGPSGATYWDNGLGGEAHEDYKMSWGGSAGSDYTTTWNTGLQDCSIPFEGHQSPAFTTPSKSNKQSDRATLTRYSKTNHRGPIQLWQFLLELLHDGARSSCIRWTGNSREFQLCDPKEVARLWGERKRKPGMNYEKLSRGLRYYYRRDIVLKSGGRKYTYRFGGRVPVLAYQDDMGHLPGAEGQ
The experiment is described as above.

Experiment [5] has as its target T5, endogenous ETV2 (mouse (endogenous in mouse ES cell-derived embryoid bodies)) (UniProt P41163).
T5 sequence: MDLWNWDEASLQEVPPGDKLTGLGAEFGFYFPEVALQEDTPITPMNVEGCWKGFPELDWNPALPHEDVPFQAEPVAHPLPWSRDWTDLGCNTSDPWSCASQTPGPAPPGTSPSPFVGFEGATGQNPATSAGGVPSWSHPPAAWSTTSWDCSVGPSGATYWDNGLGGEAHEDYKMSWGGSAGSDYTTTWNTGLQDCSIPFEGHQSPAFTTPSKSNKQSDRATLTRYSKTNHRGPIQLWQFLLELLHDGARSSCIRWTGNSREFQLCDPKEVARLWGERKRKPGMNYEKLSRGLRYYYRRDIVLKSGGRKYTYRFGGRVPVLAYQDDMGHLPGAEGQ
The experiment can be described thus: co-IP; D4 EB lysates; IP with ETV2 antibody (abcam ab181847), blot for VEZF1.

A further experiment addresses T6, HA-tagged ETV2 (UniProt P41163).
T6 sequence: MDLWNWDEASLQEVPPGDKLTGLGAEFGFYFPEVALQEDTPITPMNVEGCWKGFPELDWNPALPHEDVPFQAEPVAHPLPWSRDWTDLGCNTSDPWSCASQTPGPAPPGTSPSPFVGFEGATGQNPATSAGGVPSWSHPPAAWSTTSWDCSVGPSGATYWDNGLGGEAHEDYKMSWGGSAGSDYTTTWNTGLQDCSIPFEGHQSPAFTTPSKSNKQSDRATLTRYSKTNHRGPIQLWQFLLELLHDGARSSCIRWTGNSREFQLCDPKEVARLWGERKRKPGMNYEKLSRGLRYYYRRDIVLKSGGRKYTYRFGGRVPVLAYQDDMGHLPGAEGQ
The experiment can be described thus: co-IP; lysates of day 4 EBs from dox-inducible HA-Etv2 mouse ES cells (doxycycline 0.5 ug/mL days 2-3); IP with mouse anti-HA (12CA5), blot anti-VEZF1; lysis buffer 20 mM HEPES-KOH pH 7.9, 150 mM NaCl, 0.5% NP40, 1 mM EDTA, 10% glycerol.

No constants are given. Whether binding was seen depends on the method and setting. For part of these data: Binding seen in cells or lysates may run through a third protein. Some binding calls cover weakened binding; strength is not graded here. For part of these data: Tags and fused reporters may be left off the sequences shown.

B1: VEZF1 (vascular endothelial zinc finger 1), yeast two-hybrid hit (protein, UniProt Q5SXC4 1-518)
chain: MEANWTAFLFQAHEASHHQQQAAQNSLLPLLSSAVEPPDQKPLLPIPITQKPQAAPETLKDAIGIKKEKPKTSFVCTYCSKAFRDSYHLRRHQSCHTGIKLVSRAKKTPTTVVPLISTIAGDSSRTSLVSTIAGILSTVTTSSSGTNPSSSASTTSMPVPQSVKKPSKPVKKNHACEMCGKAFRDVYHLNRHKLSHSDEKPFECPICNQRFKRKDRMTYHVRSHEGGITKPYTCSVCGKGFSRPDHLSCHVKHVHSTERPFKCQTCTAAFATKDRLRTHMVRHEGKVSCNICGKLLSAAYITSHLKTHGQSQSINCNTCKQGISKTCMSEETSNQKQQQQQQQQQQQQQQQHVTSWPGKQVETLRLWEEAVKARKKEAANLCQTSTAATTPVTLTTPFNITSSVSSGTMSNPVTVAAAMSMRSPVNVSSAVNITSPMNIGHPVTITSPLAMTSPLTLTTPVNLPTPVTAPVNIAHPVTITSPMNLPTPMTLAAPLNIAMRPVESMPFLPQALPTSPPW
In the case of B1, the binding result in experiment [1] is “binds”.

B2: in vitro translated myc-flag-tagged VEZF1 (protein, UniProt Q5SXC4 1-518)
chain: MEANWTAFLFQAHEASHHQQQAAQNSLLPLLSSAVEPPDQKPLLPIPITQKPQAAPETLKDAIGIKKEKPKTSFVCTYCSKAFRDSYHLRRHQSCHTGIKLVSRAKKTPTTVVPLISTIAGDSSRTSLVSTIAGILSTVTTSSSGTNPSSSASTTSMPVPQSVKKPSKPVKKNHACEMCGKAFRDVYHLNRHKLSHSDEKPFECPICNQRFKRKDRMTYHVRSHEGGITKPYTCSVCGKGFSRPDHLSCHVKHVHSTERPFKCQTCTAAFATKDRLRTHMVRHEGKVSCNICGKLLSAAYITSHLKTHGQSQSINCNTCKQGISKTCMSEETSNQKQQQQQQQQQQQQQQQHVTSWPGKQVETLRLWEEAVKARKKEAANLCQTSTAATTPVTLTTPFNITSSVSSGTMSNPVTVAAAMSMRSPVNVSSAVNITSPMNIGHPVTITSPLAMTSPLTLTTPVNLPTPVTAPVNIAHPVTITSPMNLPTPMTLAAPLNIAMRPVESMPFLPQALPTSPPW
As to B2, the binding entry in experiment [2], in experiment [3] and in experiment [4] was “binds” in each case.

B3: endogenous VEZF1 (protein, UniProt Q5SXC4 1-518)
chain: MEANWTAFLFQAHEASHHQQQAAQNSLLPLLSSAVEPPDQKPLLPIPITQKPQAAPETLKDAIGIKKEKPKTSFVCTYCSKAFRDSYHLRRHQSCHTGIKLVSRAKKTPTTVVPLISTIAGDSSRTSLVSTIAGILSTVTTSSSGTNPSSSASTTSMPVPQSVKKPSKPVKKNHACEMCGKAFRDVYHLNRHKLSHSDEKPFECPICNQRFKRKDRMTYHVRSHEGGITKPYTCSVCGKGFSRPDHLSCHVKHVHSTERPFKCQTCTAAFATKDRLRTHMVRHEGKVSCNICGKLLSAAYITSHLKTHGQSQSINCNTCKQGISKTCMSEETSNQKQQQQQQQQQQQQQQQHVTSWPGKQVETLRLWEEAVKARKKEAANLCQTSTAATTPVTLTTPFNITSSVSSGTMSNPVTVAAAMSMRSPVNVSSAVNITSPMNIGHPVTITSPLAMTSPLTLTTPVNLPTPVTAPVNIAHPVTITSPMNLPTPMTLAAPLNIAMRPVESMPFLPQALPTSPPW
Regarding B3, the binding entry (in experiment [5]; with HA-tagged ETV2) was “binds” throughout.
